In article doi:10.1101/503540 (bioRxiv, 2018):
Results are given in words; binding and its absence hold for the method and conditions named. Some entries that bind do so weakly or less than the wild type. Tags and fused reporters may be left off the sequences shown. Values belong to the binder of their own block, whether it stands above or below them.

Legend:
[1] = target: T1, eIF2Bα, S. pombe (subunit of eIF2B) (Schizosaccharomyces pombe) (UniProt Q9USP0); test: crystal structure
T1 sequence: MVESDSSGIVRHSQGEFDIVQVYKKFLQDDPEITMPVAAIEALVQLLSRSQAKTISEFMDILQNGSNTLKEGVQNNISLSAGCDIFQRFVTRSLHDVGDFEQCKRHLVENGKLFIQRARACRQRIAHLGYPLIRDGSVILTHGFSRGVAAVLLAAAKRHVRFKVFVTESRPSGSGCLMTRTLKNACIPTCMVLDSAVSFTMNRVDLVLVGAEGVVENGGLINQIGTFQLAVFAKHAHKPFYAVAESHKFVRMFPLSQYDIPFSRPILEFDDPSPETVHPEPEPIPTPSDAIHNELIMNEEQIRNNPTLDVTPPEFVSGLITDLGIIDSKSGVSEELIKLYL

[2] = target: T2, eIF2Bδ, S. pombe (subunit of eIF2B) (Schizosaccharomyces pombe) (UniProt Q09924); test: crystal structure
T2 sequence: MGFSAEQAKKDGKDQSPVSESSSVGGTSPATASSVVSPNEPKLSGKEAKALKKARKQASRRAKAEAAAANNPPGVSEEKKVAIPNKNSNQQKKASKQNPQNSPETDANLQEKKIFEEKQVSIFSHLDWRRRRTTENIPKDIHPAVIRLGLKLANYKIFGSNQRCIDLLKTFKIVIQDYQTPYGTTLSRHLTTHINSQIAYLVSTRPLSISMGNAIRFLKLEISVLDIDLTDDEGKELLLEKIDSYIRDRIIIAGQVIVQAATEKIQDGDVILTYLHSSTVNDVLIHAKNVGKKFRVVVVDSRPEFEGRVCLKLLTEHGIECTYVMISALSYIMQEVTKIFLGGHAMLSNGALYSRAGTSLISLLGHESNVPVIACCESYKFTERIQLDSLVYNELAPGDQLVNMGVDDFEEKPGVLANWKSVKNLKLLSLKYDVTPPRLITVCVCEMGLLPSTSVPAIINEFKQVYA

binding [1]: binds | binding [2]: binds
B1: S. cerevisiae phosphorylated eIF2α (P-eIF2α), wild type (protein, UniProt P20459 1-304)
chain: MSTSHCRFYENKYPEIDDIVMVNVQQIAEMGAYVKLLEYDNIEGMILLSELSRRRIRSIQKLIRVGKNDVAVVLRVDKEKGYIDLSKRRVSSEDIIKCEEKYQKSKTVHSILRYCAEKFQIPLEELYKTIAWPLSRKFGHAYEAFKLSIIDETVWEGIEPPSKDVLDELKNYISKRLTPQAVKIRADVEVSCFSYEGIDAIKDALKSAEDMSTEQMQVKVKLVAAPLYVLTTQALDKQKGIEQLESAIEKITEVITKYGGVCNITMPPKAVTATEDAELQALLESKELDNRSDSEDDEDESDDE
modifications: phosphoserine at 51

binding [1]: binds | binding [2]: binds
B2: S. cerevisiae eIF2α, unphosphorylated, wild type (protein, UniProt P20459 1-304)
chain: B1 chain
